# Percent effect of library compounds

From ChEMBL document CHEMBL3988442, “University of Dundee, Small-Polar-MMV Screening Library” (2021).

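Whole-parasite assay of Trypanosoma brucei over 72 hours; the read-out is not stated. Tested at 30 µM. Higher reads as stronger inhibition (inferred: compounds with an IC50 in retests scored well above the rest). Values scatter widely below zero; nearly all retest evidence comes from the higher of the two concentrations used. About 64,000 compounds were tested under these conditions; 1.5% (about 940) showed 50% or more at least once.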

The filed quantity is “Percent Effect” (%). The record does not define 0% and 100%; most values in the screen are far below 50% and negative numbers occur (in some assays of this library far below -100). Compounds were drawn at random from those tested, without regard to their results.

- c1csc(CN2CCc3nc(N4CCOCC4)nc(NC4CC4)c3C2)n1 | -88.48%
- Cc1nn(C)c2c(=O)n(Cc3ccc(C#N)cc3)nnc12 | -11.84%
- COc1ccc(-c2cccc(-c3ccn(CC4COCCO4)n3)c2)nn1 (configuration not stated) | -121.1%
- O=C1CCCCN1CCCNCc1cnc(C2CCC2)s1 | -27.09%
- O=C(O)C(F)(F)F.c1cncc(N2CCCn3nnc(COCC4CC4)c3C2)c1 | -2.195%
- Cc1ccc(NC(=O)c2ccc(N3CCCCC3)nn2)c(Cl)c1 | -62.95%
- O=C(c1cc(F)ccc1O)N1CCN(C(=O)C2CCC2)CC1 | 8.592%
- O=C(O)C(F)(F)F.O=C(O)C(F)(F)F.c1cncc(OC[C@@H]2CCC[C@@]23CN(Cc2nccs2)CCO3)c1 | -327.9%
- Cc1ccc2c(c1)OCCCC2NCc1nccn1Cc1ccccc1 (configuration not stated) | -31.44%
- CCNc1ccnc(NC2CCN(C(=O)c3ccc(C)cc3)CC2)n1 | -13.55%
- CO[C@H]1CCN(C(=O)c2ccc3oc(C)cc3c2)C[C@@]12CCCO2 | 4.416%
- O=C(c1cc[nH]n1)N1CCC(Nc2cccnn2)CC1 | -32.3%
- COCc1cc(N(C)Cc2c(C)nn(C)c2C)n2nccc2n1 | -6.472%
- [H][C@@]12CCN(C(=O)c3cccnc3OC)C[C@@]1([H])O[C@H](c1ccncn1)C2 | -34.94%
- O=C(CO)N1CCC(c2cncc(-c3cccc(Cl)c3)n2)CC1 | 20.35%
- COC(=O)c1cccc(NS(=O)(=O)c2cnc(NC(C)=O)s2)c1 | 3.558%
- Cc1nc(C)c(CC(=O)N2CCCN(CC3CC3)C(C(C)C)C2)c(=O)[nH]1 (configuration not stated) | -26.87%
- O=C(CCSc1ccccc1)NS(=O)(=O)c1ccc2c(c1)OCCO2 | -15.7%
- Oc1cc(C2CCCCN2C2CCCC2)nc(-c2cccnc2)n1 (configuration not stated) | -9.481%
- CCOC(=O)NC(CNC(=O)c1cccnc1SC)CC(C)C (configuration not stated) | -41.17%
- CN(C)C(=O)c1n[nH]c2c1CN(CC1CCC1)C2.O=C(O)C(F)(F)F.O=C(O)C(F)(F)F | -41.36%
- CCOC(=O)c1cc2n(n1)CCCO2 | -50.64%
- O=C1NCCCCC1Sc1ccc(F)cc1F (configuration not stated) | -18.57%
- Cc1nc(C)c(C(=O)NCCNC(=O)Cc2cccc(F)c2)s1 | 16.35%
- O=C(c1nccc2ccccc12)N(Cc1ccco1)CC1CCCO1 (configuration not stated) | -74.97%
- Cc1cccnc1CN1CCN(c2noc(-c3ccccc3)n2)CC1 | -36.34%
- Cc1nc(C)c(C(=O)NCCNC(=O)Cc2ccc(F)cc2)s1 | -19.14%
- O=C(O)C(F)(F)F.[H][C@]12CCC[C@@H](CN(C)C)[C@@]1([H])CN(c1nccc(C(F)(F)F)n1)C2 | 99.5%
- CS(=O)(=O)NC1CCN(CCc2ccccc2)CC1 | 22.98%
- COCCNc1nc2c(c(NCc3cnc(C)c(C)c3)n1)CCNCC2 | -16.35%
- Cc1cc(C)n(CC2CN(Cc3nnsc3Cl)CCO2)n1 (configuration not stated) | -21.3%
- O=C(NCc1c[nH]c(=O)[nH]c1=O)C1CCOc2ccccc2C1 (configuration not stated) | -28.33%
- O=S(=O)(c1ccc(C(F)(F)F)cc1)N1CCC(OCc2ccccn2)C1 (configuration not stated) | -18.9%
- O=C(O)C(F)(F)F.[H][C@@]12CCN(c3ncc(F)cn3)[C@]1([H])CC[C@H](C(=O)NC1CCCC1)O2 | 5.295%
- Cc1nn(C)c(C)c1CCC(=O)N1CCCOC(Cn2cccn2)C1 (configuration not stated) | -3.162%
- CCc1nc(CC(=O)NC(C#N)CC(C)C)cs1 (configuration not stated) | -33.97%
- CCN(C(c1cccnc1)c1ccc(F)cc1F)S(C)(=O)=O (configuration not stated) | -13.3%
- Cc1cc2nc(SCC(=O)N3CCOCC3)n(C(C)C)c(=O)c2[nH]1 | -27.48%
- CCOc1ccccc1CSCCn1nc2ccccn2c1=O | 1.588%
- Cc1cc(NC(=O)Cc2ccccc2O)c[nH]c1=O | -40.4%
- CC(Cn1cncc1-c1cnn(Cc2ccccc2)c1)N1CCCCC1.Cl (configuration not stated) | -17.18%
- CCn1cnnc1CCNC(=O)c1ccc(Br)cc1F | -14.47%
- O=C(C(c1ccccc1)S(=O)(=O)c1ccccn1)N1CCCCC1 (configuration not stated) | -11.33%
- CCOc1ncnc2c1CCN(C(=O)c1cnccn1)CC2 | 10.26%
- Cc1cc(CNS(C)(=O)=O)ccc1N(C)C | -2.308%
- CCC(=O)NC1CCCN(C(=O)c2ccc(OCC3CC3)nc2)C1 (configuration not stated) | -47.49%
- CCOc1ccc(Cl)c(C(=O)NCCc2ncc[nH]2)n1 | -3.183%
- O=C(O)c1cc(S(=O)(=O)Nc2cccc(F)c2F)cc2c1OCCO2 | -16.49%
- Cc1ccccc1C(C)NC(=O)Cc1c(C)nc2cc(=O)[nH]n2c1C (configuration not stated) | -210.8%
- O=C(CCc1ccc(-n2cnnn2)cc1)Nc1ccncc1 | -17.97%
- CN(c1cccnc1N1CCCC1)S(=O)(=O)c1cnn(C)c1 | -67.29%
- O=C(NC1(c2nc(C3CC3)no2)CCCCC1)c1ccncc1 | -10.85%